According to the supplement of paper PMC10849652:
This is one part of the list. Residues, ends and D or L forms follow the SMILES beside them. *: point of attachment. Cbz = O=C(OCc1ccccc1)*

By UniProt entry, the sequences of proteins in these tests, tags left out. Where a name states a change or a piece, a line headed by the entry shows the natural chain unless it says otherwise.
UniProt Q9NRF9: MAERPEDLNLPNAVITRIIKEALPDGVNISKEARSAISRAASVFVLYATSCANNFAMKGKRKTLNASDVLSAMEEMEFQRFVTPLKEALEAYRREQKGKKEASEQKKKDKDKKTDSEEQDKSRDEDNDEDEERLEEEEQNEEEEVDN
UniProt O43660: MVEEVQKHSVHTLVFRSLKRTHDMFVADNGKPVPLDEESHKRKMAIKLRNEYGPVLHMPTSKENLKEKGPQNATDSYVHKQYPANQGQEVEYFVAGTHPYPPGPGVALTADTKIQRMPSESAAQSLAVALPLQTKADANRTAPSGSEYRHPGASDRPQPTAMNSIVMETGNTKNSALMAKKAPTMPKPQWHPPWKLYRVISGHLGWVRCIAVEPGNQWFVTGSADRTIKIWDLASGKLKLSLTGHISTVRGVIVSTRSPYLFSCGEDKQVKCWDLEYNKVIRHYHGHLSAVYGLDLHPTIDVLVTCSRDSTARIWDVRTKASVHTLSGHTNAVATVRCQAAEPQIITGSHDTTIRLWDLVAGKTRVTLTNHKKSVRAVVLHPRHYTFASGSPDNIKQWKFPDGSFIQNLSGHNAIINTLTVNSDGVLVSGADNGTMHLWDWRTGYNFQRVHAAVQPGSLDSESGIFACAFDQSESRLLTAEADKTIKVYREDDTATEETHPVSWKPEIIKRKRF
UniProt Q9UIW2: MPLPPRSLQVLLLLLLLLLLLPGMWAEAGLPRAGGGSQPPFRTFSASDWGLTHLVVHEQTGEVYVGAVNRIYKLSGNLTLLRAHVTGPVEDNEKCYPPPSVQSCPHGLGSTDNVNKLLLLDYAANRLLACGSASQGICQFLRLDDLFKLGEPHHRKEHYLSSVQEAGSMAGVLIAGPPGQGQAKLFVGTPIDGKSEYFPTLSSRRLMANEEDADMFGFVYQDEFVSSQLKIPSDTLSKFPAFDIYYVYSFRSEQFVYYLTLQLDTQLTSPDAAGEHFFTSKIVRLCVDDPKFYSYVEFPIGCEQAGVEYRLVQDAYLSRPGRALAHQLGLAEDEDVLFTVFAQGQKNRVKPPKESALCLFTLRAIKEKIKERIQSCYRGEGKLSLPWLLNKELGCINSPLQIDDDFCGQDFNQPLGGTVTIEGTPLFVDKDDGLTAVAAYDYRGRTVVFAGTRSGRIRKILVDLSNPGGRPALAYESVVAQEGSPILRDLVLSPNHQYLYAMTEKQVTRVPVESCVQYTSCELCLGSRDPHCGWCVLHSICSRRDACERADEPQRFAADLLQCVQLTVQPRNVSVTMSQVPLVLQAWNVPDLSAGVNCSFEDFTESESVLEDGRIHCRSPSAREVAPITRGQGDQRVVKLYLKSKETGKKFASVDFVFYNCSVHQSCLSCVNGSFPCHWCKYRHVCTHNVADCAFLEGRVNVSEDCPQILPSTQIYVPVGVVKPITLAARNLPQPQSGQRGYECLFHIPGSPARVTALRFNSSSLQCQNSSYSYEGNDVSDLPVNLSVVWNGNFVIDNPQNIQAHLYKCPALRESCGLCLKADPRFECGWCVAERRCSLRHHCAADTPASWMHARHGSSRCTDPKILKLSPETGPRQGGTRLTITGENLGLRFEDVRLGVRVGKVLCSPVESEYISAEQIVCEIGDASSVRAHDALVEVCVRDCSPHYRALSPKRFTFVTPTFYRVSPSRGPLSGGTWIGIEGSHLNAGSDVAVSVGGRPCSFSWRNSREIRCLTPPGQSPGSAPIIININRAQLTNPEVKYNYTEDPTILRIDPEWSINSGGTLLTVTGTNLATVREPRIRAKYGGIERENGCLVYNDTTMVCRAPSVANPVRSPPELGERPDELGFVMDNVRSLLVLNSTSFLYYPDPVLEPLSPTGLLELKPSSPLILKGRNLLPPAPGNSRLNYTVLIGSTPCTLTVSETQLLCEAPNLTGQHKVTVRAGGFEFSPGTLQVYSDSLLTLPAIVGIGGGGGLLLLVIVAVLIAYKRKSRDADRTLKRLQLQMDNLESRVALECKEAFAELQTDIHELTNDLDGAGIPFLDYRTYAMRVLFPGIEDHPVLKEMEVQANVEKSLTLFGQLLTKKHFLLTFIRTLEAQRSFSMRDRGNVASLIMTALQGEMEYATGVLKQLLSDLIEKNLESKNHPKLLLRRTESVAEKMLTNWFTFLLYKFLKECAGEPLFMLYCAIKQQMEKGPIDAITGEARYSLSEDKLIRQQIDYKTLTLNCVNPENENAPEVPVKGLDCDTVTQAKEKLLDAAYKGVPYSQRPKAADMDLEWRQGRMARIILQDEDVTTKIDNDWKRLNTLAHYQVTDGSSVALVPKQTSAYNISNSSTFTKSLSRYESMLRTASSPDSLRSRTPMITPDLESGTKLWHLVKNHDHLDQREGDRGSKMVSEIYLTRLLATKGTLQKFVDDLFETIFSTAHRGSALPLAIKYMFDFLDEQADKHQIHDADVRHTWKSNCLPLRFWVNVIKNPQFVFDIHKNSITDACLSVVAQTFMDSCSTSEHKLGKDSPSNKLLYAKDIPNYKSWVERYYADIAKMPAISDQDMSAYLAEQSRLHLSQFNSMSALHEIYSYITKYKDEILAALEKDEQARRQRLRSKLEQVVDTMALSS
UniProt Q9H8W4: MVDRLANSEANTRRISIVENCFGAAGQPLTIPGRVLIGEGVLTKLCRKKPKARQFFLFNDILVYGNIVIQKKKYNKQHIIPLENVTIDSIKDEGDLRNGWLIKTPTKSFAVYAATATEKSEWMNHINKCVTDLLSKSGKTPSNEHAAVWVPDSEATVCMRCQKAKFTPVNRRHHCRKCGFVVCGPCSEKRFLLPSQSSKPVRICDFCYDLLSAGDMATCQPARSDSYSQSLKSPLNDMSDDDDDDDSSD
UniProt Q6P1K2: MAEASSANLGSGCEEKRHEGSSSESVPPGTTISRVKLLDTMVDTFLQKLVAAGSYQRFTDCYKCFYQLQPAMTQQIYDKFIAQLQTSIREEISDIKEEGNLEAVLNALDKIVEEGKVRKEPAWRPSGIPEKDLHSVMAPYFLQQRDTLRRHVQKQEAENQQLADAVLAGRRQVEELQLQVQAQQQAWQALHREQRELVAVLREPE
UniProt O15318: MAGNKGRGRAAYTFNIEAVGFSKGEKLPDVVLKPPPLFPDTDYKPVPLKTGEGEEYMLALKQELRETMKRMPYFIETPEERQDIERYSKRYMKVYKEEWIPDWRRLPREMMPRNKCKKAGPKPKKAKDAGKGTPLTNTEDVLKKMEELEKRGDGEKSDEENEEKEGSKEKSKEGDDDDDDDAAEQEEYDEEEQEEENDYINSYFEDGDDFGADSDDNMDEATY
UniProt O94903: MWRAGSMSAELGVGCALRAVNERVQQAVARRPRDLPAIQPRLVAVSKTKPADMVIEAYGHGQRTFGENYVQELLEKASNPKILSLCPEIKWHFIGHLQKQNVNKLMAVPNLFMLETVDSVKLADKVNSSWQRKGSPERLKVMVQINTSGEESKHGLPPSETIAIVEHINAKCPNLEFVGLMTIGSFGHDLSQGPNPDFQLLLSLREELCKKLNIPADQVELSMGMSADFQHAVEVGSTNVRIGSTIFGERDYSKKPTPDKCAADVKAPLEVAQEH
UniProt Q9UNP9: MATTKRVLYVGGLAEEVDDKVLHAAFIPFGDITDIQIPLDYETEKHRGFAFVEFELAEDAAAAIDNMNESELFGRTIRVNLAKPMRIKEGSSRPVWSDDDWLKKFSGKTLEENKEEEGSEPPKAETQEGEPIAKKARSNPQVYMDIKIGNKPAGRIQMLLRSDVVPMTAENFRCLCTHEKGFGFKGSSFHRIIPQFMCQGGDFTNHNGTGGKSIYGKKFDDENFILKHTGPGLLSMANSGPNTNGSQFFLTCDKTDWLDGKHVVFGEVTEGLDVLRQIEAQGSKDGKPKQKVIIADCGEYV
UniProt Q9NRX1: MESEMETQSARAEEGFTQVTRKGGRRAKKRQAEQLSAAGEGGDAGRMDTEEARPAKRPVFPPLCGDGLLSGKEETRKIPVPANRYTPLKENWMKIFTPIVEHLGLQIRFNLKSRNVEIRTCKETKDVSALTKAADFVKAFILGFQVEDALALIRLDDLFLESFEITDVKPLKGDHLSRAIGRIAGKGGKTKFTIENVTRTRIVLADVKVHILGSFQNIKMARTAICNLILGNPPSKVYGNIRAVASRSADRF
UniProt P00491: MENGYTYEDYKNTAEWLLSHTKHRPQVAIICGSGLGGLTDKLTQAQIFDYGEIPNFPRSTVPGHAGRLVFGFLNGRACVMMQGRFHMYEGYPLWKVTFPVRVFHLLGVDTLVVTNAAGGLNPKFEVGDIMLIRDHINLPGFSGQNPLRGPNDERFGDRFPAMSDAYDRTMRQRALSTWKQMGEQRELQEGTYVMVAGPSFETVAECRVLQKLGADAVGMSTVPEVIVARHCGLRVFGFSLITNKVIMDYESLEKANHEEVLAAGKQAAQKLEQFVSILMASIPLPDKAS
UniProt Q6PFW1: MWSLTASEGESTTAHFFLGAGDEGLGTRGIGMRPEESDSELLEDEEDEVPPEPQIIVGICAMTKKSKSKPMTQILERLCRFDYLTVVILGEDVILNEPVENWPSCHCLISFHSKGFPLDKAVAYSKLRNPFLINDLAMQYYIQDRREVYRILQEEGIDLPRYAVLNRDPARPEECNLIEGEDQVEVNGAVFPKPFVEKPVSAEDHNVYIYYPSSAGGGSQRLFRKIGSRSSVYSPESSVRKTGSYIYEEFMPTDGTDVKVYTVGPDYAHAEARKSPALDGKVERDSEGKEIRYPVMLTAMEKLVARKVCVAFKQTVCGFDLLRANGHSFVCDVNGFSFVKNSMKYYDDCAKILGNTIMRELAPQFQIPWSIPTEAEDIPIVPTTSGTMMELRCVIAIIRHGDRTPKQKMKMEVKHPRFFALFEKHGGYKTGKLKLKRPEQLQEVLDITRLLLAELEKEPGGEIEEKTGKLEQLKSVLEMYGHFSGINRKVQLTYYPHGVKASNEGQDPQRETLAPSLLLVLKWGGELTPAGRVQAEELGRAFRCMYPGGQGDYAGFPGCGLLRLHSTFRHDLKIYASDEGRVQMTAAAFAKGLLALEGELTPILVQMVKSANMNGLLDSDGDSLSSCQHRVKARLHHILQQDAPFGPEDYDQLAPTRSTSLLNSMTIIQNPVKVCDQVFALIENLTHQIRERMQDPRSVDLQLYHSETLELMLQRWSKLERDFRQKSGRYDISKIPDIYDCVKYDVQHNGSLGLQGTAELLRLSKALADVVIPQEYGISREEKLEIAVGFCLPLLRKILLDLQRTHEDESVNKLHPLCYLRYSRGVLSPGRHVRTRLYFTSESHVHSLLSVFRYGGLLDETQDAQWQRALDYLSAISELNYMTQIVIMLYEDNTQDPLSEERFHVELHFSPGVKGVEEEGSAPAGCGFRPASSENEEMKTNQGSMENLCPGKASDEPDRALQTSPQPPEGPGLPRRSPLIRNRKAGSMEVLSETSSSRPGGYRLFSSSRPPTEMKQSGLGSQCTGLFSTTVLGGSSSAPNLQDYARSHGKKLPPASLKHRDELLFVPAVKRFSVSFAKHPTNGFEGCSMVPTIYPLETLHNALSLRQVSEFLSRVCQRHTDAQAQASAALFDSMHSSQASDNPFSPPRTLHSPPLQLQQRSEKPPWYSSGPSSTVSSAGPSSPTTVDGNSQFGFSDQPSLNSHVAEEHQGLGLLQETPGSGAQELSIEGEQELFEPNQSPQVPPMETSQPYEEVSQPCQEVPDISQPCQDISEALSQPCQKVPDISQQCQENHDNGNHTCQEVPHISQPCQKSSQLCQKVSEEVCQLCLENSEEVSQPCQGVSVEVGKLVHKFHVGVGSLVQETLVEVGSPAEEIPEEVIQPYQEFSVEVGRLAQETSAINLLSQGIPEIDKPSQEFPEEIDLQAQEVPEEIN
UniProt P14859: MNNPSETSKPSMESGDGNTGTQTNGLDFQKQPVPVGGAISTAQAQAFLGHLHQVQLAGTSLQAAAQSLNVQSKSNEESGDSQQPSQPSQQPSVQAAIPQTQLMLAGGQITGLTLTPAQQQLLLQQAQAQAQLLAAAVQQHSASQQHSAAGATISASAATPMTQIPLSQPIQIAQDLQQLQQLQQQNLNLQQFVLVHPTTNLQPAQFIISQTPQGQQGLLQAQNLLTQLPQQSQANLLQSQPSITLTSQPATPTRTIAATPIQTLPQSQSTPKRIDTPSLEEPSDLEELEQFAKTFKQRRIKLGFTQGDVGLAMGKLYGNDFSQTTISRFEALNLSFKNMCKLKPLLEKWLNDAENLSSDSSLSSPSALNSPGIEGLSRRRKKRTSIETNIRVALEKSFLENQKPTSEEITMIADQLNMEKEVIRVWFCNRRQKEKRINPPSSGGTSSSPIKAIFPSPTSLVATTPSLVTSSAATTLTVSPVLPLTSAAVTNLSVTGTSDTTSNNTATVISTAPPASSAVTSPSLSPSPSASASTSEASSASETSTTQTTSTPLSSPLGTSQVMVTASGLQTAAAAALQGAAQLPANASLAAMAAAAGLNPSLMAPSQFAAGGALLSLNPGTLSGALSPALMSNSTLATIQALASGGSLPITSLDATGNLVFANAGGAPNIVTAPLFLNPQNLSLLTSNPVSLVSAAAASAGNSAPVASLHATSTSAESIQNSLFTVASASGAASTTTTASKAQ

Tests used:
Assay in all cases: log2 fold change, soluble protein after heating vs DMSO (PISA); higher = thermal stabilisation; K562 cells, 10 uM, 30 min; active = over 0.2 and 3.5 SD of the protein, either way, in both replicates (recomputed)
erlotinib = compound: C#Cc1cccc(Nc2ncnc3cc(OCCOC)c(OCCOC)cc23)c1 [erlotinib]
Procedure, shortened: (§1)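 K562 cells (2×10^6 cells/mL) were treated with 10 μM compound for 30 min, and aliquots were heated for 3 min over 48°C-58°C. Pooled aliquots were extracted in PBS with 0.5% NP-40 at 4°C, and the supernatant after 21,000xg for 90 min was measured by TMTpro 16plex LC-MS/MS with channel sums equalised. Reported thermal stability, relative to control samples and from duplicates, is a log2 fold change.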

[1] = compound: C/C(=N\NC(=O)C1=CC(=CC=C1)S(=O)(=O)N2CCOCC2)/C3=C(C=CC(=C3)Cl)O
Procedure, shortened: as §1

[2] = compound: C1=CC(=C(C=C1Cl)C2=NC3=NC=CN=C3C(=N2)NC4=CC=NC=C4)F
Procedure, shortened: as §1

[3] = compound: C1=CC(=CC=C1C2=NC3=C(N2)C=C(C=C3)C(=O)N)OC4=CC=C(C=C4)Cl
Procedure, shortened: as §1

[4] = compound: C1=CC2=C(C=CC(=C2)/C=C\3/C(=O)NC(=NCC4=CC=CS4)S3)N=C1
Procedure, shortened: as §1

[5] = compound: C1=CC2=NC=CN=C2C=C1/C=C/3\C(=O)NC(=O)S3
Procedure, shortened: as §1

[6] = compound: C1=CC=C(C=C1)C2=NC(=C(N2)C3=CC=NC=C3)C4=CC(=C(C=C4)Cl)O
Procedure, shortened: as §1

[7] = compound: C1=CC=C2C(=C1)C3=NNC4=CC=CC(=C43)C2=O
Procedure, shortened: as §1

[8] = compound: C1CCN(C1)C(=O)NC2=CC=CC(=C2)NC3=NC=C(C(=N3)NCCC4=CN=CN4)Br
Procedure, shortened: as §1

[9] = compound: C1CN(CCC1(CC2=CC=C(C=C2)Cl)N)C3=NC=NC4=C3C=CN4
Procedure, shortened: as §1

IRAK-1-4 Inhibitor I = compound: C1COCCN1CCN2C3=CC=CC=C3N=C2NC(=O)C4=CC(=CC=C4)[N+](=O)[O-] [IRAK-1-4 Inhibitor I]
Procedure, shortened: as §1

ibrutinib = compound: C=CC(=O)N1CCC[C@@H](n2nc(-c3ccc(Oc4ccccc4)cc3)c3c(N)ncnc32)C1 [ibrutinib]
Procedure, shortened: as §1

[10] = compound: CC(=O)c1cnc2ccc(-c3cc(Cl)c(O)c(Cl)c3)nc2c1N[C@H]1CC[C@H](CN(C)C)CC1
Procedure, shortened: as §1

ralimetinib = compound: CC(C)(C)Cn1c(N)nc2ccc(-c3[nH]c(C(C)(C)C)nc3-c3ccc(F)cc3)nc21 [ralimetinib]
Procedure, shortened: as §1

[11] = compound: CC(C)(O)CC(=O)NCCn1ccc2ncnc(Nc3ccc(Oc4cccc(C(F)(F)F)c4)c(Cl)c3)c21
Procedure, shortened: as §1

[12] = compound: CC(C)C1=C2N=C(C=C(N2N=C1)NCC3=CC=CC=C3)NCCCCCCN
Procedure, shortened: as §1

[13] = compound: CC(C)C[C@@H](C=O)NC(=O)[C@H](CC(C)C)NC(=O)[C@H](CC(C)C)NC(=O)OCc1ccccc1
Procedure, shortened: as §1

pinometostat = compound: CC(C)N(C[C@H]1O[C@@H](n2cnc3c(N)ncnc32)[C@H](O)[C@@H]1O)[C@H]1C[C@@H](CCc2nc3cc(C(C)(C)C)ccc3[nH]2)C1 [pinometostat]
Procedure, shortened: as §1

[14] = compound: CC1=C(C(CC(=O)N1)C2=CC=C(C=C2)C(F)(F)F)C(=O)NC3=C(C=C4C(=C3)C=NN4)F
Procedure, shortened: as §1

[15] = compound: CC1=C(C2=C(C=C1)C(=O)C3=CC=CC=C3N2CCCN)C
Procedure, shortened: as §1

Measured: log2 fold change

POLE3 (UniProt Q9NRF9)
inactive: erlotinib 0.016 | [1] 0.016 | [2] -0.026 | [3] -0.033 | [4] -0.007 | [5] -0.008 | [6] -0.011 | [7] -0.001 | [8] 0.02 | [9] 0.049 | IRAK-1-4 Inhibitor I 0.028 | ibrutinib -0.053 | [10] -0.046 | ralimetinib 0.073 | [11] 0.003 | [12] -0.006 | [13] -0.024 | pinometostat 0.007 | [14] 0.006 | [15] -0.028

POLG2 (UniProt Q9UHN1)
inactive: erlotinib -0.029 | [1] -0.042 | [2] -0.008 | [3] 0.017 | [4] -0.038 | [5] -0.016 | [6] -0.038 | [7] 0 | [8] -0.006 | [9] 0.001 | IRAK-1-4 Inhibitor I 0.016 | ibrutinib 0.072 | [10] 0.022 | ralimetinib -0.014 | [11] 0.007 | [12] 0.051 | [13] 0.05 | pinometostat -0.047 | [14] -0.008 | [15] 0.087

PLRG1 (UniProt O43660)
inactive: erlotinib -0.02 | [1] -0.029 | [2] -0.056 | [3] 0.036 | [4] -0.023 | [5] 0.046 | [6] -0.003 | [7] -0.009 | [8] 0.024 | [9] 0.021 | IRAK-1-4 Inhibitor I 0 | ibrutinib -0.028 | [10] 0.019 | ralimetinib -0.059 | [11] 0.152 | [12] 0.123 | [13] 0.016 | pinometostat 0.015 | [14] 0.101 | [15] 0.095

PLXNA1 (UniProt Q9UIW2)
inactive: erlotinib -0.025 | [1] 0.034 | [2] 0.055 | [3] 0.011 | [4] 0.014 | [5] -0.01 | [6] -0.013 | [7] -0.026 | [8] -0.013 | [9] 0.053 | IRAK-1-4 Inhibitor I 0.004 | ibrutinib 0.005 | [10] -0.085 | ralimetinib -0.028 | [11] -0.015 | [12] 0.099 | [13] 0.014 | pinometostat -0.015 | [14] -0.055 | [15] 0.051

PLEKHF2 (UniProt Q9H8W4)
inactive: erlotinib 0.099 | [1] 0.114 | [2] 0.046 | [3] 0 | [4] 0.054 | [5] 0 | [6] 0.029 | [7] -0.024 | [8] -0.035 | [9] 0.046 | IRAK-1-4 Inhibitor I -0.048 | ibrutinib 0.047 | [10] -0.134 | ralimetinib 0 | [11] -0.034 | [12] -0.144 | [13] 0.052 | pinometostat -0.104 | [14] 0.055 | [15] 0.071

POLR2F (UniProt P61218)
inactive: erlotinib -0.005 | [1] 0.065 | [2] 0.144 | [3] -0.028 | [4] -0.255 | [5] 0.116 | [6] -0.066 | [7] 0.031 | [8] -0.27 | [9] 0.232 | IRAK-1-4 Inhibitor I -0.117 | ibrutinib 0.012 | [10] 0.346 | ralimetinib 0.057 | [11] -0.083 | [12] 0.214 | [13] 0.125 | pinometostat -0.218 | [14] 0.092 | [15] -0.017

PMF1 (UniProt Q6P1K2)
inactive: erlotinib 0.007 | [1] 0.096 | [2] 0.027 | [3] 0.041 | [4] 0.045 | [5] 0.078 | [6] -0.03 | [7] -0.034 | [8] -0.14 | [9] -0.052 | IRAK-1-4 Inhibitor I -0.082 | ibrutinib 0.072 | [10] -0.019 | ralimetinib 0.023 | [11] -0.109 | [12] -0.012 | [13] 0.035 | pinometostat 0.004 | [14] -0.05 | [15] -0.029

PNISR (UniProt Q8TF01)
inactive: erlotinib -0.012 | [1] 0.008 | [2] 0.001 | [3] 0.012 | [4] -0.059 | [5] 0.028 | [6] 0.028 | [7] 0 | [8] 0.02 | [9] 0.027 | IRAK-1-4 Inhibitor I 0.007 | ibrutinib 0.006 | [10] -0.038 | ralimetinib 0.032 | [11] 0.008 | [12] 0.025 | [13] -0.022 | pinometostat -0.035 | [14] 0.015 | [15] -0.116

POLR3G (UniProt O15318)
inactive: erlotinib 0.09 | [1] -0.07 | [2] 0.078 | [3] 0.096 | [4] -0.001 | [5] 0.074 | [6] 0.017 | [7] 0 | [8] -0.07 | [9] 0.043 | IRAK-1-4 Inhibitor I 0.04 | ibrutinib -0.036 | [10] -0.123 | ralimetinib 0.016 | [11] -0.069 | [12] 0.092 | [13] -0.026 | pinometostat -0.025 | [14] 0.014 | [15] -0.12

PLPBP (UniProt O94903)
inactive: erlotinib 0.113 | [1] 0.09 | [2] 0.066 | [3] -0.126 | [4] 0.036 | [5] -0.004 | [6] -0.249 | [7] -0.037 | [8] -0.113 | [9] 0.001 | IRAK-1-4 Inhibitor I -0.079 | ibrutinib -0.076 | [10] -0.099 | ralimetinib -0.011 | [11] -0.137 | [12] -0.144 | [13] 0.052 | pinometostat 0.005 | [14] -0.057 | [15] 0.03

PPIE (UniProt Q9UNP9)
inactive: erlotinib 0.016 | [1] -0.017 | [2] 0.065 | [3] -0.053 | [4] -0.03 | [5] 0.063 | [6] 0.071 | [7] -0.025 | [8] 0.049 | [9] 0.037 | IRAK-1-4 Inhibitor I 0.019 | ibrutinib -0.042 | [10] 0.067 | ralimetinib 0.002 | [11] 0.038 | [12] 0.096 | [13] -0.06 | pinometostat -0.008 | [14] -0.019 | [15] -0.081

PPM1B (UniProt O75688)
inactive: erlotinib 0.025 | [1] 0.045 | [2] 0.064 | [3] 0.086 | [4] 0.022 | [5] -0.001 | [6] 0.017 | [7] 0.055 | [8] -0.004 | [9] -0.094 | IRAK-1-4 Inhibitor I 0.02 | ibrutinib -0.033 | [10] -0.005 | ralimetinib -0.022 | [11] -0.014 | [12] -0.004 | [13] -0.016 | pinometostat 0.003 | [14] -0.029 | [15] -0.021

2 consecutive entries already listed, quoted:
PLPBP (UniProt O94903)
inactive: erlotinib 0.113 | [1] 0.09 | [2] 0.066 | [3] -0.126 | [4] 0.036 | [5] -0.004 | [6] -0.249 | [7] -0.037 | [8] -0.113 | [9] 0.001 | IRAK-1-4 Inhibitor I -0.079 | ibrutinib -0.076 | [10] -0.099 | ralimetinib -0.011 | [11] -0.137 | [12] -0.144 | [13] 0.052 | pinometostat 0.005 | [14] -0.057 | [15] 0.03

PPIE (UniProt Q9UNP9)
inactive: erlotinib 0.016 | [1] -0.017 | [2] 0.065 | [3] -0.053 | [4] -0.03 | [5] 0.063 | [6] 0.071 | [7] -0.025 | [8] 0.049 | [9] 0.037 | IRAK-1-4 Inhibitor I 0.019 | ibrutinib -0.042 | [10] 0.067 | ralimetinib 0.002 | [11] 0.038 | [12] 0.096 | [13] -0.06 | pinometostat -0.008 | [14] -0.019 | [15] -0.081

The listing continues.

PNO1 (UniProt Q9NRX1)
inactive: erlotinib 0.033 | [1] 0.025 | [2] -0.177 | [3] 0.071 | [4] -0.069 | [5] 0.044 | [6] -0.02 | [7] 0.059 | [8] 0.096 | [9] -0.377 | IRAK-1-4 Inhibitor I -0.125 | ibrutinib 0.002 | [10] 0.01 | ralimetinib 0.185 | [11] 0 | [12] -0.072 | [13] 0.147 | pinometostat 0.192 | [14] 0.045 | [15] -0.345

PNP (UniProt P00491)
inactive: erlotinib -0.009 | [1] -0.008 | [2] 0.012 | [3] 0.003 | [4] -0.026 | [5] 0.027 | [6] -0.033 | [7] -0.021 | [8] 0.009 | [9] 0.055 | IRAK-1-4 Inhibitor I 0.03 | ibrutinib 0.038 | [10] -0.022 | ralimetinib -0.05 | [11] 0.003 | [12] 0.073 | [13] -0.019 | pinometostat -0.032 | [14] 0.003 | [15] 0.011

PPIP5K1 (UniProt Q6PFW1)
inactive: erlotinib -0.054 | [1] 0.092 | [2] 0.022 | [3] 0.034 | [4] 0.003 | [5] -0.023 | [6] -0.021 | [7] -0.008 | [8] -0.034 | [9] -0.03 | IRAK-1-4 Inhibitor I 0.054 | ibrutinib 0.013 | [10] 0.006 | ralimetinib -0.003 | [11] -0.09 | [12] 0.002 | [13] -0.008 | pinometostat -0.016 | [14] -0.028 | [15] -0.04

POU2F1 isoform 6 (UniProt P14859)
inactive: erlotinib 0.107 | [1] 0.065 | [2] 0.214 | [3] -0.048 | [4] 0.029 | [5] 0.05 | [6] 0.019 | [7] -0.042 | [8] -0.042 | [9] -0.036 | IRAK-1-4 Inhibitor I 0.007 | ibrutinib -0.086 | [10] 0.004 | ralimetinib 0.06 | [11] -0.154 | [12] -0.168 | [13] -0.059 | pinometostat -0.021 | [14] 0.02 | [15] -0.232
